Source: PMC5932489
These are yes or no findings as the source states them, for the method shown. Binding seen in cells or lysates may run through a third protein. Some results given as binding are weak or reduced against the parent protein; the word gives no strength.

Protein sequences, listed by entry. Tags and fused reporters are not part of them.
UniProt O00327: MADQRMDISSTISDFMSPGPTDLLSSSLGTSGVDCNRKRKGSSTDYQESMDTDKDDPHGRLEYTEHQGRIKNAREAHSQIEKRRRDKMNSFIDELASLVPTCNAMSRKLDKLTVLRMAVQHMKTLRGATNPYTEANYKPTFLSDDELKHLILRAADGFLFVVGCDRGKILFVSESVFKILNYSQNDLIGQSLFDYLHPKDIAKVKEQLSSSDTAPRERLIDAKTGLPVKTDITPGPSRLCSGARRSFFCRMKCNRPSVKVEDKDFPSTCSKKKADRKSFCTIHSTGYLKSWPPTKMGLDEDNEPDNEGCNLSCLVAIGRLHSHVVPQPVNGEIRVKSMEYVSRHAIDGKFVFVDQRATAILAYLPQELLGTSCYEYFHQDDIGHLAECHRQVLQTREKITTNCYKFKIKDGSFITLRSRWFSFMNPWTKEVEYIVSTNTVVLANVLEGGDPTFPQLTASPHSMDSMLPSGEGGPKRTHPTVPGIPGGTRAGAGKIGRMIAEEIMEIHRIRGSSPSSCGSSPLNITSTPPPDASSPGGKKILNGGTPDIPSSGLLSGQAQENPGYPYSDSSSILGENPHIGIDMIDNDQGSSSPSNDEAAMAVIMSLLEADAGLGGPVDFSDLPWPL

Molecular target: brain and muscle Arnt-like protein 1 (BMAL1) (human (endogenous in SH-SY5Y)) (UniProt O00327)
Experiment: co-IP; SH-SY5Y cell lysates 24 h after 6-OHDA treatment (control, 6-OHDA, resveratrol pretreatment + 6-OHDA); anti-BMAL1 antibody overnight at 4°C, protein A/G-agarose beads 2 h at room temperature, washed with PBS; blot for CRY1 and BMAL1

B1: cryptochrome 1 (CRY1) (protein, UniProt Q16526 1-586)
chain: MGVNAVHWFRKGLRLHDNPALKECIQGADTIRCVYILDPWFAGSSNVGINRWRFLLQCLEDLDANLRKLNSRLFVIRGQPADVFPRLFKEWNITKLSIEYDSEPFGKERDAAIKKLATEAGVEVIVRISHTLYDLDKIIELNGGQPPLTYKRFQTLISKMEPLEIPVETITSEVIEKCTTPLSDDHDEKYGVPSLEELGFDTDGLSSAVWPGGETEALTRLERHLERKAWVANFERPRMNANSLLASPTGLSPYLRFGCLSCRLFYFKLTDLYKKVKKNSSPPLSLYGQLLWREFFYTAATNNPRFDKMEGNPICVQIPWDKNPEALAKWAEGRTGFPWIDAIMTQLRQEGWIHHLARHAVACFLTRGDLWISWEEGMKVFEELLLDADWSINAGSWMWLSCSSFFQQFFHCYCPVGFGRRTDPNGDYIRRYLPVLRGFPAKYIYDPWNAPEGIQKVAKCLIGVNYPKPMVNHAEASRLNIERMKQIYQQLSRYRGLGLLASVPSNPNGNGGFMGYSAENIPGCSSSGSCSQGSGILHYAHGDSQQTHLLKQGRSSMGTGLSGGKRPSQEEDTQSIGPKVQRQSTN
binding: binds
